Assay results reported in US10675273B2, “Benzothiazole amphiphiles” (The Regents of the University of California, priority 2016, dated 2020).
Some of these results come from one statement about several compounds together. For some of these results: At least one compound was matched to its structure with a doubt left.

Tests used:
RasGRF1 = experiment: Western blot analysis of RasGRF1 expression; type: cell-based, human; conditions: 1 or 5 μM / increasing concentrations, differentiated SH-SY5Y cells
Protocol: Western Blot Analysis of Ras-GRF1 Expression in SH-SY5Y Cells Exposed to BAMs 1-3 or BTA-EG6. Differentiation of SH-SY5Y cells was performed according to a previously described procedure. Briefly, cells were differentiated for 8 days by the addition of 10 μM all-trans-retinoic acid (RA) in the cell culture medium (1:1 EMEM and Ham's F12 supplemented with 10% FBS). Media with RA was changed every 2 days. After 8 days, the media was removed and new, RA-free media containing the sample solutions was added. Cells were exposed to solutions containing a final concentration of the BTA-E6 and BAMs (0, 1, or 5 μM) for 24 hours at 37° C. Cells were than lysed with NP-40 buffer with protease inhibitor (Roche, ref #05892791001) and protein concentration was determined by BCA assay (Pierce BCA Assay Kit, #23225). Proteins were separated by SDS-PAGE (NUPAGE® 4-12% Bis-Tris gel, NUPAGE® MES SDS running buffer) followed by transfer onto nitrocellulose membrane (NOVEX®, LC2000). Membranes were blocked with 3% BSA in Tris-Buffered Saline with Tween 20 (TBST) for 1 h followed by incubation with primary antibodies in 3% BSA/TBST [mouse anti-RasGRF1 (BD 610149) and mouse anti-tubulin-β (Thermo MS1226-P)] overnight at 4° C. with shaking. […] The density of each band was then quantified using ImageJ software as a percentage of control following normalization to β-tubulin.

[1] = Fluorescence emission spectra in water, octanol and aqueous liposome suspension (membrane partitioning); type: physicochemical; conditions: 50 μM compound, DiPhyPC liposomes
Protocol: Measurement of Fluorescence Emission Spectra. The emission spectra of benzothiazoles in different environments was evaluated as previously described. Briefly, BAMs 1-3 and BTA-EG6 were diluted to a final concentration of 50 μM in deionized H2O, pure octanol, and a liposome suspension. The liposomes were prepared from a total lipid concentration of 10 mM of DiPhyPC in water by the gentle dehydration rehydration method followed by tip sonication. 200 μL of each sample was transferred to a cuvette (Hellma® Analytics, Quartz […]® (QS), 10 mm) and the fluorescence emission spectrum was measured in a PTI spectrofluorometer (0.5 nm step size) in water, octanol and an aqueous liposome suspension for BAMs 1-3 and BTA-EG6. Maximal excitation and emission values (λmax) for all compounds were as follows: BTA-EG6 (Ex/Em 355/420 nm), BAM1-EG6 (Ex/Em 355/420 nm), BAM2-EG6, (Ex/Em 365/428 nm), and BAM3-EG6 (Ex/Em 335/398 nm). Each experiment was repeated at least three separate times and error bars denote standard deviation from the mean. Data was processed using ORIGIN® 7.0 (MicroCal Software, Inc., Northampton, Mass.).

[2] = system: rat primary hippocampal neurons; experiment: Dendritic spine density and morphology in primary hippocampal neurons; type: cell-based; conditions: 24 h exposure, versus vehicle control (0.1% DMSO)
Protocol: Neuronal Cultures. Rat dissociated hippocampal neurons from postnatal day 1 were plated at a density of 45,000 cells/cm^2 onto poly-D-lysine-coated coverslips. Neurons were maintained in B27 supplemented Neurobasal media (Invitrogen) until days in vitro (DIV) 18-23 as previously described.
Neuronal Treatments. For all neuronal treatments the following general protocol was followed: Briefly, 18-23 DIV rat dissociated hippocampal neurons were dosed with various concentrations (0-50 μM final concentration) of BAMs 1-3 or BTA-EGx (with 0.1% final DMSO concentration) for various times (24-72 h depending on the experiment). After dosing and at the desired time point, the media was removed and cells were rinsed with PBS-MC (phosphate-buffered saline, 1 mM MgCl2 and 0.1 mM CaCl2). Following rinsing, cells were fixed with 4% paraformaldehyde (PFA)/sucrose in PBS for 10 min at RT. […]
Confocal Microscopy and Dendritic Spine Analysis. […] Imaged dendrites were straightened using ImageJ, and spine density was the number of manually counted spines divided by dendrite segment length. The analyzer was blind to treatment and statistical significance was determined between experimental conditions by either unpaired t tests (two groups) or by ANOVA and indicated post hoc multiple-comparison test (>2 experimental conditions).

| Structure (SMILES) | effect on RasGRF1 expression levels (in words) (RasGRF1) | change of emission max (λmax) in aqueous liposome suspension from water, relative to λmax in pure octanol [1] | effect on dendritic spine density (in words) [2] |
| --- | --- | --- | --- |
| OCCOCCOCCOCCOCCOCCSc1ccc(-c2nc3ccccc3s2)cc1 [BAM3-EG6, 17-((4-(benzo[d]thiazol-2-yl)phenyl)thio)-3,6,9,12,15-pentaoxaheptadecan-1-ol] | increased RasGRF1 expression levels | 29-34% | statistically significant increase in net spine density at a lower concentration compared to BTA-EG6 |
| Cc1ccc2nc(-c3ccc(NCCOCCOCCOCCOCCOCCO)cc3)sc2c1 [BTA-EG6] | increased RasGRF1 expression levels |  |  |
